According to the supplement of paper PMC11732987, “Enantioselective OTUD7B fragment discovery through chemoproteomics screening and high-throughput optimisation” (Communications Chemistry, 2025):
Some of the results follow. The data scatter; read single values as rough.

By UniProt entry, the sequences of proteins in these tests, tags left out. Where a name states a change or a piece, a line headed by the entry shows the natural chain unless it says otherwise. Residues count along the entry.
UniProt Q16513, 100-120: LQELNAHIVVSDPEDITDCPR
UniProt Q9H8W4, 140-160: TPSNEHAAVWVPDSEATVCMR
UniProt O60346: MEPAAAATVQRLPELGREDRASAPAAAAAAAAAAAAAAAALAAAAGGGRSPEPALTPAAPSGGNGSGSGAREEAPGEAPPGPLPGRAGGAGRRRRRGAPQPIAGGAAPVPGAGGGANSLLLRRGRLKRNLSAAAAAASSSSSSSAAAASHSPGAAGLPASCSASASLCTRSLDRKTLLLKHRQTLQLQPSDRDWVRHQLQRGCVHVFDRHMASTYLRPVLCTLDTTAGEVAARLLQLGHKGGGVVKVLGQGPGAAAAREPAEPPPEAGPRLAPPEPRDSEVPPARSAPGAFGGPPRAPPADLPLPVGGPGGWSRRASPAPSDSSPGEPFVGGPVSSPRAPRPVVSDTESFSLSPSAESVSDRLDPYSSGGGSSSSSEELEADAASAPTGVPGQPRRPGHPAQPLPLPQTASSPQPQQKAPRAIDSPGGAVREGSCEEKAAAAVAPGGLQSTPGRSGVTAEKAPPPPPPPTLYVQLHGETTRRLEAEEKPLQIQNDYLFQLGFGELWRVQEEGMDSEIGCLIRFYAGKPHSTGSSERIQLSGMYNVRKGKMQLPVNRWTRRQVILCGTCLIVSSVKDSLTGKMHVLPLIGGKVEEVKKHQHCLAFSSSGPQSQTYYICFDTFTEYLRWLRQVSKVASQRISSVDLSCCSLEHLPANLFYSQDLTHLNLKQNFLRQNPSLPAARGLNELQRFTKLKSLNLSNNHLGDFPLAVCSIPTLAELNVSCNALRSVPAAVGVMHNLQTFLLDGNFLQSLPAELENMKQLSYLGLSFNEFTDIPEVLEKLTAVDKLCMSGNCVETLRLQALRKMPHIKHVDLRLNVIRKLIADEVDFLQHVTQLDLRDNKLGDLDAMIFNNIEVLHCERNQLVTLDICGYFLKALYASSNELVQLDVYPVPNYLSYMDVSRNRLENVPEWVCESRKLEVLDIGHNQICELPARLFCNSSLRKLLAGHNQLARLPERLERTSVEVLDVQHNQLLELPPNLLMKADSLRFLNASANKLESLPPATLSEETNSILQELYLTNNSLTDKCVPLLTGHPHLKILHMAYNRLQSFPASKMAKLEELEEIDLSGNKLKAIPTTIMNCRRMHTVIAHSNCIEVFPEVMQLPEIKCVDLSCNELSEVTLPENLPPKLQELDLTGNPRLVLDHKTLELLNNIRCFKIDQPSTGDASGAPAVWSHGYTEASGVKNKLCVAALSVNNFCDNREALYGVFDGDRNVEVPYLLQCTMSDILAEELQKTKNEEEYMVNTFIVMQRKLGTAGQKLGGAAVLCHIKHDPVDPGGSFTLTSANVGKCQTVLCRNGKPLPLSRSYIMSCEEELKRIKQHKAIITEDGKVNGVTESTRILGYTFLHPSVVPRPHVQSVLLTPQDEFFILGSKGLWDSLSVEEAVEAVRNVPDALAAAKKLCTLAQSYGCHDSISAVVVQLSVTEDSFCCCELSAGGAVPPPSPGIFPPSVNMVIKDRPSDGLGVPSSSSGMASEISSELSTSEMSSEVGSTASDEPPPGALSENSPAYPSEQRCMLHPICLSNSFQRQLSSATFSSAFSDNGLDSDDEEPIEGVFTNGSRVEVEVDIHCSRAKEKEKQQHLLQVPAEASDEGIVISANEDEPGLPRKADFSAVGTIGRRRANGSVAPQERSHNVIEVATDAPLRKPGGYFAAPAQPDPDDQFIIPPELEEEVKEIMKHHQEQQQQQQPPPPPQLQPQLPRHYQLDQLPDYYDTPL
UniProt P28340: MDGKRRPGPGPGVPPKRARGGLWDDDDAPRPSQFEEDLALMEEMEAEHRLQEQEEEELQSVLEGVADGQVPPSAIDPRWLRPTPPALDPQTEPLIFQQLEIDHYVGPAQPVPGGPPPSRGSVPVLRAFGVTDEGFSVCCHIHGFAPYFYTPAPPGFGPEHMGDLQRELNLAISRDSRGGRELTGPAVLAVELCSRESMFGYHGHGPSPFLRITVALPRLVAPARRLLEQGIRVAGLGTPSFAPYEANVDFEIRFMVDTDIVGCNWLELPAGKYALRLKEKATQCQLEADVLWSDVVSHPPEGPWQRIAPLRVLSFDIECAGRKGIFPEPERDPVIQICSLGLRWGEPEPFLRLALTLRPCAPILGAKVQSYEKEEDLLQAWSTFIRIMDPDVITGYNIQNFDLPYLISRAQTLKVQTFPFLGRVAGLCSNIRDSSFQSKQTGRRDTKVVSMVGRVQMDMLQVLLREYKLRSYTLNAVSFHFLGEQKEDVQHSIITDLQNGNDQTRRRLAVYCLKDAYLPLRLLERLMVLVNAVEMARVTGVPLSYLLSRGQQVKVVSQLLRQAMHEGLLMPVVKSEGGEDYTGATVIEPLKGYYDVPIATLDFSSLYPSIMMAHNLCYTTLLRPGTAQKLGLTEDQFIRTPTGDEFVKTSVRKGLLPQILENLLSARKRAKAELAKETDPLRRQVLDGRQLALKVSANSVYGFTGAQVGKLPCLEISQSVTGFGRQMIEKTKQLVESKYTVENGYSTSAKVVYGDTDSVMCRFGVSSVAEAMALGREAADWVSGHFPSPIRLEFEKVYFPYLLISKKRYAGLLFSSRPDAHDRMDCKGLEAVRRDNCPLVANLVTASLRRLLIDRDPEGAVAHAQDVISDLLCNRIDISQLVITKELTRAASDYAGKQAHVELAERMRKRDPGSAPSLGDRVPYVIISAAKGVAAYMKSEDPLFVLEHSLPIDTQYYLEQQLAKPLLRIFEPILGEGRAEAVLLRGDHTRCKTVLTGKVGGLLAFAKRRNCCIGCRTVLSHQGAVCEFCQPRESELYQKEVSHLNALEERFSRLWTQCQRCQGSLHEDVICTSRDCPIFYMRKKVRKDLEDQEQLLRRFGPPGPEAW
UniProt Q07864, 580-604: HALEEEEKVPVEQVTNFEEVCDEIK
UniProt Q9P215: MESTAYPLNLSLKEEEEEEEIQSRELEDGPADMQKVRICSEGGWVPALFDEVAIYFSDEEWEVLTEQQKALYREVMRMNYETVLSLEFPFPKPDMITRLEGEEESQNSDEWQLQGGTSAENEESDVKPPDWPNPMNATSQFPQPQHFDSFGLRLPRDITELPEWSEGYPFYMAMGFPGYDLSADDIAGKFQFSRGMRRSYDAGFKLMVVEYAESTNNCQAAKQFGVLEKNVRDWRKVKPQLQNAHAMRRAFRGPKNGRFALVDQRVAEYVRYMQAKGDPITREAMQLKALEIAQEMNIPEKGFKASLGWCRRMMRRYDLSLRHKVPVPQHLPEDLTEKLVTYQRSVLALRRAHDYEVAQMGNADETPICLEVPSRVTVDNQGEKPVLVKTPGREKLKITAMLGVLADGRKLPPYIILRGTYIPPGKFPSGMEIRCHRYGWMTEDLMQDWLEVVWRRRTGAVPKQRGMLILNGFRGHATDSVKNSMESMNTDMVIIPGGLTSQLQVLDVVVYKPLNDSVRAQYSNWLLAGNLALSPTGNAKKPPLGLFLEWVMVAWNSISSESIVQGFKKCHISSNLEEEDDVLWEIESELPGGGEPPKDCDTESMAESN
UniProt P55347: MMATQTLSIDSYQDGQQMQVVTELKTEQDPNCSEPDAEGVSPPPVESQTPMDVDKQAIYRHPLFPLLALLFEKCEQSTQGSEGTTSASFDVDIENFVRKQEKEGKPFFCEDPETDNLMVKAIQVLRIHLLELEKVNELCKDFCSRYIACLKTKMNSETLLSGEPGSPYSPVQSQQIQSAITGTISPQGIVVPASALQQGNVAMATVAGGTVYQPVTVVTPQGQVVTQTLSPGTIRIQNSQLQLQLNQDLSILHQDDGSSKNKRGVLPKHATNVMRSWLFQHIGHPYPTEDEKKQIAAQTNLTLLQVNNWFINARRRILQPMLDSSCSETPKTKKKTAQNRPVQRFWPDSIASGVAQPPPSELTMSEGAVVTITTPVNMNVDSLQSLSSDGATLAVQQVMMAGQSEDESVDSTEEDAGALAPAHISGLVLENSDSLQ
UniProt P42336, whole entry, looked up: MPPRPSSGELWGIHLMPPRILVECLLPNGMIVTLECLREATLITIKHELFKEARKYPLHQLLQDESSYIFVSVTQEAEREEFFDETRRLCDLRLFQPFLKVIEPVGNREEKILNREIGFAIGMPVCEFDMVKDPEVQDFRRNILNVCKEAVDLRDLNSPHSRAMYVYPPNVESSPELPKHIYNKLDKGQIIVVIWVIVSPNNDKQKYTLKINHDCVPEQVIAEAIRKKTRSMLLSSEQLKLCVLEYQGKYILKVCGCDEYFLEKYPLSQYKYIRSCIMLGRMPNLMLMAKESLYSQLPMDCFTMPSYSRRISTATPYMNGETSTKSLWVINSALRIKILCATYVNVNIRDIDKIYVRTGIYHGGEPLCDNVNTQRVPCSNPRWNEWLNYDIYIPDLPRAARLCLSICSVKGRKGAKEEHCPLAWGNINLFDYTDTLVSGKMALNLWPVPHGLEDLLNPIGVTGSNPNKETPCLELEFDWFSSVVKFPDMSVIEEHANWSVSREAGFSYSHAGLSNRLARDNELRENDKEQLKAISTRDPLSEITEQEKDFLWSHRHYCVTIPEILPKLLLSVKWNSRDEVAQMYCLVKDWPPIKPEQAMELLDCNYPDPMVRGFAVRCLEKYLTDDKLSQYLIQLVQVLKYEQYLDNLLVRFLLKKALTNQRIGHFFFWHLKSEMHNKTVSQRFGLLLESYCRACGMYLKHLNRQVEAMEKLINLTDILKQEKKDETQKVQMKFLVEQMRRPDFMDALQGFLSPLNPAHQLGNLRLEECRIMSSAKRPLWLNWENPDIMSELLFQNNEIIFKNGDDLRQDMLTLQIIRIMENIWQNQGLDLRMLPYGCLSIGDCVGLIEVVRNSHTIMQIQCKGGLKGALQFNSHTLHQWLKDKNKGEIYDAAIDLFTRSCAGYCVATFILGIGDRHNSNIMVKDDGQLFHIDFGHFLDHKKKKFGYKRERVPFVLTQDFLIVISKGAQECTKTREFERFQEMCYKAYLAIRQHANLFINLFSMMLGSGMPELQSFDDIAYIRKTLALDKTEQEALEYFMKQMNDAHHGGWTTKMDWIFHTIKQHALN
UniProt Q99570, 892-917: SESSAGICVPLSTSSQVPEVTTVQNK
UniProt Q6IQ23: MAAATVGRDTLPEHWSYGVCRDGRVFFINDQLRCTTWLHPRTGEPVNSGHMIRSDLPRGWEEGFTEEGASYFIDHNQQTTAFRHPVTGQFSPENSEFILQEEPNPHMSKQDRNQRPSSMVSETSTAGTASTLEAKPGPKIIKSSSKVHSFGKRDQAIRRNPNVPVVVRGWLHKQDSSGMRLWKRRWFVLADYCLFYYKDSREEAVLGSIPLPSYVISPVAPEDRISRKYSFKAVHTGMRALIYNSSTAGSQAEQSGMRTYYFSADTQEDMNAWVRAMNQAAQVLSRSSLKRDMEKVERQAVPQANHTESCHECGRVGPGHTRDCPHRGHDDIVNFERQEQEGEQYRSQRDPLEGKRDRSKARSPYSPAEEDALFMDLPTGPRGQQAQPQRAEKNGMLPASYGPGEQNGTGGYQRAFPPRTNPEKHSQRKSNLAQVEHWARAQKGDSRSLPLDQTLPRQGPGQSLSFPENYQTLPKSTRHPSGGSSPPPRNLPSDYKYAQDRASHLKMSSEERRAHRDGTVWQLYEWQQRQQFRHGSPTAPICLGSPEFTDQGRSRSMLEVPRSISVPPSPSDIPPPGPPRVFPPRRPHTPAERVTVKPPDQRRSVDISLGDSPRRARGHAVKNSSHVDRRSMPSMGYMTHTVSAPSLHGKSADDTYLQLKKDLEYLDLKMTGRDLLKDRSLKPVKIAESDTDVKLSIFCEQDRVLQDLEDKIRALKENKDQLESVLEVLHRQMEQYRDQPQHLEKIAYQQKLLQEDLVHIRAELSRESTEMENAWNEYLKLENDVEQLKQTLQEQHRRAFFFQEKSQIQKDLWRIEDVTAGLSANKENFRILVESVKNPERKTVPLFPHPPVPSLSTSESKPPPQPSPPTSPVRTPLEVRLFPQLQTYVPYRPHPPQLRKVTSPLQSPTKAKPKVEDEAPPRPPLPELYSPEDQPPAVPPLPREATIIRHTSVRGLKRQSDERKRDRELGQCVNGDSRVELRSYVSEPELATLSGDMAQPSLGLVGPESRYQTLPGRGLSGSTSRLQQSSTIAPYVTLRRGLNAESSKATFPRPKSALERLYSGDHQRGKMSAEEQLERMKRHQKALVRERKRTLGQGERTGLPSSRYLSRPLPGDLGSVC
UniProt P15735: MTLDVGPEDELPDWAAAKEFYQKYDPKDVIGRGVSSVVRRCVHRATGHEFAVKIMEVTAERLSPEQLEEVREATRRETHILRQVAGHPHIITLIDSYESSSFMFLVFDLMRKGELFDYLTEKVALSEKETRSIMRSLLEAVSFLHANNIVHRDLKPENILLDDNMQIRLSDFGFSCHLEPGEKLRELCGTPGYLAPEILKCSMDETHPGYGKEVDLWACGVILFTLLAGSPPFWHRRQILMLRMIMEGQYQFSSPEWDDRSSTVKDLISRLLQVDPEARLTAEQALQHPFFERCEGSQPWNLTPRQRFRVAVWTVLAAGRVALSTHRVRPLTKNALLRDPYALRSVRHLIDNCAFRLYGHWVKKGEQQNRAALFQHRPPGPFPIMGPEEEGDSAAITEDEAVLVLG

compound: ClCC(=O)N[C@@H]1CCCc2ccccc12; assay: log2 mean competition ratio of IA-DTB cysteine labelling (DMSO/compound) (log2 ratio); higher = stronger cysteine engagement by compound; details: 50 µM; treatment time: 4 h; cell line lysate: HEK293T
Procedure: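 IA-DTB competitive cysteine chemoproteomics in HEK293T RIPA lysate. Lysates were treated with compound 29 or 30 at 50 or 200 µM for 4 h, then IA-DTB (500 µM, 1 h), trypsin-digested, NeutrAvidin-enriched and analysed by diaPASEF. Competition ratio = intensity DMSO / intensity compound (n=4 treated, n=64 DMSO); binding: mean log2 CR ≥ 1 and p ≤ 0.05 plus QC filters. Target is the cysteine site.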

Row | Target | log2 mean competition ratio
1 | PHF3 C561 (UniProt Q92576) | -0.0333
2 | PKP4 C591 (UniProt Q99569) | 0.129
3 | PKN2 C118 (UniProt Q16513) | -0.0504
4 | PHKA1 C656 (UniProt P46020) | -0.0191
5 | PIKFYVE C161 (UniProt Q9Y2I7) | -0.193
6 | PLEKHO1 C269 | -0.342
7 | PLEKHF2 C158 (UniProt Q9H8W4) | -0.0499
8 | PKP2 C647 (UniProt Q99959) | -0.0535
9 | PHLPP1 C1312 (UniProt O60346) | -0.0375
10 | POLL C425 | -0.235
11 | PHF6 C28 (UniProt Q8IWS0) | -0.0505
12 | PKN2 C394 (UniProt Q16513) | -0.289
13 | POLD1 C1058 (UniProt P28340) | 0.0157
14 | PMPCB C485 (UniProt O75439) | 0.0817
15 | POLE C600 (UniProt Q07864) | -0.4
16 | PHF3 C1631 (UniProt Q92576) | -0.234
17 | PMS2 C202 (UniProt P54278) | 0.136
18 | PMM2 C136 (UniProt O15305) | -0.097
19 | PLEKHG3 C30 | -0.147

Not a retest: entries from further up.
Row | Target | log2 mean competition ratio
13 | POLD1 C1058 (UniProt P28340) | 0.0157
14 | PMPCB C485 (UniProt O75439) | 0.0817

Further entries:

Row | Target | log2 mean competition ratio
20 | POGK C218 (UniProt Q9P215) | -0.177
21 | PLCG2 C791 (UniProt P16885) | -0.115
22 | PKNOX1 C109 (UniProt P55347) | -0.307
23 | PIK3CA C242 (UniProt P42336) | 0.0632
24 | PIK3R4 C899 (UniProt Q99570) | -0.303
25 | PLEKHA7 C699 (UniProt Q6IQ23) | -0.322
26 | PIBF1 C199 (UniProt Q8WXW3) | -0.289
27 | PHKA1 C937 (UniProt P46020) | -0.139
28 | PLEKHM2 C551 (UniProt Q8IWE5) | -0.594
29 | PHRF1 C1123 (UniProt Q9P1Y6) | -0.053
30 | PLAA C605 (UniProt Q9Y263) | 0.3
31 | PLEKHM2 C340 (UniProt Q8IWE5) | -0.0615
32 | PNPLA6 C418 (UniProt Q8IY17) | 0.414
33 | PHKG2 C176 (UniProt P15735) | 0.216
34 | PLEKHA3 C94 (UniProt Q9HB20) | -0.0366
35 | POLD1 C193 (UniProt P28340) | 0.165
36 | POLD3 C398 (UniProt Q15054) | -0.172
37 | PI4KA C1131 (UniProt P42356) | 0.194
